Data as given in PubChem BioAssay AID1259274 (Sanger Institute, 2017)
Purpose: 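Kinase knock-downs that cut colorectal cancer cell viability or boost drug killing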 (primary screen). Cells: human RKO colorectal cancer cells. Knock-down reagent: siRNA pool against human genes. Conditions: anchor drugs BYL719 at 1 µM, cetuximab at 5 µg/ml or trametinib at 10 nM; DMSO vehicle as the no-drug arm. Measured: 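Viability as fraction of non-targeting pool 2 control, averaged across replicates, robust z-score for single knock-down, and a combination synergy score per anchor drug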. Direction: viability z-score, siRNA alone: higher = more viable cells; low values mean essential gene; viability, siRNA alone, vehicle: higher = more viable cells; synergy score with BYL719 and synergy score with Trametinib and synergy score with Cetuximab: higher = stronger combined killing with the drug. Rule for the call: 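Essential when the robust viability z-score with siRNA only falls below -3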. Meaning of the calls: active = essential when knocked down alone; inactive = no change alone.
The whole screen tested 794 reagents; below is a part drawn at random. Over the whole deposit, 11 (1.4%) are marked active. 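Calls rest on knock-down without drug only; synergy scores with anchor drugs were not used for the essential call.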 No viability above 1 is reported: the scale is capped. Not given: the amount of reagent, the time to read-out.

no.	target gene	viability z-score, siRNA alone	viability, siRNA alone, vehicle (fraction of control)	synergy score with BYL719	synergy score with Trametinib	synergy score with Cetuximab	Outcome
1	STK32C	1.19	1	0.0522	-0.231	0.00478	inactive
2	AMHR2	1.19	1	0.0442	-0.128	0	inactive
3	PIP4K2B	0.506	0.941	-0.0428	-0.113	-0.0587	inactive
4	LTK	-0.236	0.878	0.00838	-0.0989	-0.0446	inactive
5	LRRK2	0.83	0.969	-0.0487	-0.145	-0.0158	inactive
6	TEC	-0.0587	0.893	-0.0297	-0.112	-0.0466	inactive
7	FCSK	0.395	0.932	-0.0625	-0.219	-0.0652	inactive
8	SRMS	-0.149	0.885	-0.0266	-0.0245	0.0712	inactive
9	FYN	0.278	0.922	-0.0363	-0.165	-0.0246	inactive
10	STKLD1	0.737	0.961	-0.0477	-0.091	-0.029	inactive
11	MAPK12	-1.29	0.788	-0.0868	-0.173	-0.0848	inactive
12	NTRK2	0.503	0.941	-0.109	-0.225	0.063	inactive
13	PDGFRA	-0.821	0.828	-0.0493	-0.148	-0.117	inactive
14	MAP3K4	-0.292	0.873	-0.0196	-0.173	-0.0145	inactive
15	CDC73	-4.89	0.479	-0.19	-0.145	-0.119	active
16	PDK2	-0.863	0.824	-0.0172	-0.112	-0.0241	inactive
17	PHKG1	0.691	0.957	-0.0423	-0.205	0.173	inactive
18	PDGFRB	-0.479	0.857	-0.084	-0.142	0.0329	inactive
19	PXK	0.241	0.919	-0.0887	-0.163	-0.0592	inactive
20	BMPR1A	-0.173	0.883	-0.0885	-0.0263	-0.0428	inactive
21	IPPK	1.19	1	0.069	-0.0783	0	inactive
22	MAP2K1	0.776	0.964	-0.0887	-0.188	-0.0355	inactive
23	DCK	-1.83	0.741	-0.122	-0.212	-0.0424	inactive
24	XYLB	-0.673	0.84	-0.125	-0.24	-0.125	inactive
25	GRK6	-0.376	0.866	-0.122	0.0128	0.039	inactive
26	DNMT3A	1.19	1	0.0318	-0.0656	0.0658	inactive
27	CAMK1D	1.05	0.988	-0.0367	-0.186	0.0395	inactive
28	CHD9	1.19	1	-0.0919	-0.171	0.112	inactive
29	SPHK1	1.19	1	-0.0793	-0.0783	0	inactive
30	STYK1	-0.41	0.863	-0.00806	-0.119	-0.0214	inactive
31	CLK2	-1.17	0.798	-0.0725	-0.161	-0.118	inactive
32	PAPSS1	1.19	1	-0.128	-0.211	0.00535	inactive
33	SYNCRIP	0.00973	0.899	0.132	0.00811	0.0838	inactive
34	NF1	0.6	0.949	0.0666	-0.117	-0.0285	inactive

Hits, of those listed so far:
target gene	viability z-score, siRNA alone	viability, siRNA alone, vehicle (fraction of control)	synergy score with BYL719	synergy score with Trametinib	synergy score with Cetuximab	Outcome
CDC73	-4.89	0.479	-0.19	-0.145	-0.119	active
